Among the data in PMC4650652 are binding values, retold here.

This experiment addresses T1, HA-RIG-I (UniProt O95786).
T1 sequence: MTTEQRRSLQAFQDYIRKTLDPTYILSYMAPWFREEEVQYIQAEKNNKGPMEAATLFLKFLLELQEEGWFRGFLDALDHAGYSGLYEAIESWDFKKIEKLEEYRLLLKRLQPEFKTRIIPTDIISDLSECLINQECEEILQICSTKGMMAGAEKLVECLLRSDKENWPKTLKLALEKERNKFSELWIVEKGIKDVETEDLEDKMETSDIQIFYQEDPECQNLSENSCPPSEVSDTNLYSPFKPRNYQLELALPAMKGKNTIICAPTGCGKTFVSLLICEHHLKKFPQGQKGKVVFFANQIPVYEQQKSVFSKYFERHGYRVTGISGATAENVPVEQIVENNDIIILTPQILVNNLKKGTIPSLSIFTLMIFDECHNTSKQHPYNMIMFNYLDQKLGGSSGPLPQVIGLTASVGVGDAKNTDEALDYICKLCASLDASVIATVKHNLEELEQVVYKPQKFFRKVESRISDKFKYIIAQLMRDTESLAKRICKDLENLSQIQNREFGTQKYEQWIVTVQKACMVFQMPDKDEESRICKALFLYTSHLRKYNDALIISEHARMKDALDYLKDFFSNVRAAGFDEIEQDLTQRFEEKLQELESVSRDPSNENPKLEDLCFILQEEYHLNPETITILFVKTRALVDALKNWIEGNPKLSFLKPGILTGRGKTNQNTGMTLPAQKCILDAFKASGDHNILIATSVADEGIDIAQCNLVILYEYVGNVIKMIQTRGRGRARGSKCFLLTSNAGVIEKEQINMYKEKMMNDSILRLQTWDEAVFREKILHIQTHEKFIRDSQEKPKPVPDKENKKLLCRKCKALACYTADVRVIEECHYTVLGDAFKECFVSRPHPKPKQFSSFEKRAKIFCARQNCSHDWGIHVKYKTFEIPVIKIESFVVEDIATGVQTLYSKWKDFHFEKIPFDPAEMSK
The experiment can be described thus: co-IP; HEK293T cells co-transfected with HA-RIG-I, Flag-IPS-1 and increasing amounts of Myc-USP15 or its mutants, infected with SEV 24 h later; lysates immunoprecipitated with anti-HA antibody, immunoblotted with anti-Flag and anti-Myc antibodies. Background: Immunoblotting shows a protein as a band on a membrane.

These are yes or no findings as the source states them, for the method shown. Binding seen in cells or lysates may run through a third protein. Some results given as binding are weak or reduced against the parent protein; the word gives no strength. Where a sequence is shown, tags or fusion partners need not be part of it.

B1: Myc-USP15-WT (enzyme, UniProt Q9Y4E8-2 1-952)
chain: MAEGGAADLDTQRSDIATLLKTSLRKGDTWYLVDSRWFKQWKKYVGFDSWDKYQMGDQNVYPGPIDNSGLLKDGDAQSLKEHLIDELDYILLPTEGWNKLVSWYTLMEGQEPIARKVVEQGMFVKHCKVEVYLTELKLCENGNMNNVVTRRFSKADTIDTIEKEIRKIFSIPDEKETRLWNKYMSNTFEPLNKPDSTIQDAGLYQGQVLVIEQKNEDGTWPRGPSTPNVKNSNYCLPSYTAYKNYDYSEPGRNNEQPGLCGLSNLGNTCFMNSAIQCLSNTPPLTEYFLNDKYQEELNFDNPLGMRGEIAKSYAELIKQMWSGKFSYVTPRAFKTQVGRFAPQFSGYQQQDCQELLAFLLDGLHEDLNRIRKKPYIQLKDADGRPDKVVAEEAWENHLKRNDSIIVDIFHGLFKSTLVCPECAKISVTFDPFCYLTLPLPMKKERTLEVYLVRMDPLTKPMQYKVVVPKIGNILDLCTALSALSGIPADKMIVTDIYNHRFHRIFAMDENLSSIMERDDIYVFEININRTEDTEHVIIPVCLREKFRHSSYTHHTGSSLFGQPFLMAVPRNNTEDKLYNLLLLRMCRYVKISTETEETEGSLHCCKDQNINGNGPNGIHEEGSPSEMETDEPDDESSQDQELPSENENSQSEDSVGGDNDSENGLCTEDTCKGQLTGHKKRLFTFQFNNLGNTDINYIKDDTRHIRFDDRQLRLDERSFLALDWDPDLKKRYFDENAAEDFEKHESVEYKPPKKPFVKLKDCIELFTTKEKLGAEDPWYCPNCKEHQQATKKLDLWSLPPVLVVHLKRFSYSRYMRDKLDTLVDFPINDLDMSEFLINPNAGPCRYNLIAVSNHYGGMGGGHYTAFAKNKDDGKWYYFDDSSVSTASEDQIVSKAAYVLFYQRQDTFSGTGFFPLDRETKGASAATGIPLESDEDSNDNDNDIENENCMHTN
For the molecule B1, the binding entry is given as “binds”.
